This is one part of the list. Single values are uncertain here, since repeats match poorly.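 U2OS cells carrying ACE2 were mixed with U2OS cells carrying full-length spike, and fusion was scored by imaging as the share of nuclei showing both cell types' fluorescent markers. A compound counts as an inhibitory hit when it is non-toxic and its fusion z-score falls below -3, meaning more than three standard deviations below the plate's DMSO wells.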
Tested on: U2OS ACE2 x SARS-CoV-2 spike co-culture
Assay: cell-cell fusion (fraction fused) z-score vs plate DMSO control; higher = more fusion
Conditions: 30 µM; 5 h; toxicity class: non-toxic, passed QC

| SMILES | cell-cell fusion (z-score) |
| --- | --- |
| CC(C)(C)NC[C@H](O)COc1ccccc1C1CCCC1.O=S(=O)(O)O | inactive: 1.75 |
| Nc1ncnc2c1ncn2C1O[C@H](COP(=O)(O)O)[C@@H](O)[C@H]1O (some centres undefined) | inactive: 1.98 |
| CNC(=O)c1ccccc1Sc1ccc2c(/C=C/c3ccccn3)n[nH]c2c1 [Axitinib] | inactive: 2.57 |
| O=c1cc(-c2ccc(O)cc2)oc2cc(O)cc(O)c12 [Apigenin] | inactive: -0.532 |
| COc1ccc(-c2cc(=O)c3cc(OC)ccc3o2)cc1 | inactive: 2.69 |
| Cc1cccc2c3c(ccc12)C1=C(C(=O)C3=O)C(C)CO1 (centres undefined) | inactive: 1.97 |
| COc1cc(N)c(Cl)cc1C(=O)OCCN1CCCCC1 | inactive: 2.62 |
| COc1c(-c2coc3cc4c(cc3c2=O)CC(O)C(C)(C)O4)ccc2c1C=CC(C)(C)O2 (centres undefined) | active: -6.56 |
| CC(C)c1cccc(C(C)C)c1O | inactive: 4.49 |
| CC(C)c1cccc(C(C)C)c1O [Propofol] | inactive: 4.81 |
| CS(=O)(=O)c1cccc(CNc2nc(Nc3ccc4c(c3)CCC(=O)N4)ncc2C(F)(F)F)c1 | active: -4.86 |
| CC(=O)O[C@H]1CC[C@@]2(C)C(=CCC3C2CC[C@@]2(C)C3CC[C@@H]2C(C)CCCC(C)C)C1 (some centres undefined) | inactive: 2.05 |
| CC(=O)[C@H]1CCC2C3CC=C4C[C@@H](O)CC[C@]4(C)C3CC[C@@]21C (some centres undefined) | inactive: 0.78 |
| CCCc1c(-c2ccc(O)cc2)nn(-c2ccc(O)cc2)c1-c1ccc(O)cc1 [1,3,5-tris(4-hydroxyphenyl)-4-propyl-1H-pyrazole] | inactive: 4.19 |
| CN1C(=O)CC[C@H]1c1cccnc1 | inactive: 1.09 |
| CNC(=O)c1ccc(C)c(-n2c(C)cc(OCc3ccc(F)cc3F)c(Br)c2=O)c1 | inactive: 1.42 |
| NS(=O)(=O)c1cccc2c1c([N+](=O)[O-])cc1nc([O-])c([O-])nc12.[Na+].[Na+] [NBQX disodium] | inactive: 3.1 |
| O=C1C=CC(=O)C=C1 [p-Benzoquinone] | inactive: 0.247 |
| CC(C)N(CCC(C(N)=O)(c1ccccc1)c1ccccn1)C(C)C (centres undefined) [Disopyramide] | inactive: 3.13 |
| CC(C)OC(=O)CCC/C=C\C[C@@H]1[C@@H](CCC(O)CCc2ccccc2)[C@H](O)C[C@@H]1O (some centres undefined) [Latanoprost] | inactive: -2.85 |
| CN1CCN(C2Cc3ccccc3Sc3ccc(Cl)cc32)CC1.O=C(O)/C=C\C(=O)O (racemic) [(±)-Octoclothepin maleate] | inactive: 0.645 |
| Cl.c1ccc(CN(CC2=NCCN2)c2ccccc2)cc1 [Antazoline hydrochloride] | inactive: 2.86 |
| Cc1ccnc(NS(=O)(=O)c2ccc(NC(=O)Nc3ccc(S(=O)(=O)Nc4nccc(C)n4)cc3)cc2)n1 | inactive: 1.5 |

| SMILES | cell-cell fusion (z-score) |
| --- | --- |
| CC(=O)[C@@]1(O)CC[C@H]2[C@@H]3C[C@H](C)C4=CC(=O)CC[C@]4(C)[C@H]3CC[C@@]21C [Medroxyprogesterone] | inactive: 1.95 |
| NC(=O)c1cnccn1 [Pyrazinamide] | inactive: 2.51 |
| CC[C@@H](CO)NC(=O)[C@@H]1C=C2c3cccc4[nH]cc(c34)C[C@H]2N(C)C1.O=C(O)/C=C\C(=O)O [Methylergonovine maleate] | inactive: 0.996 |
| COc1cnc(NS(=O)(=O)c2ccc(N)cc2)nc1 [Sulfameter] | inactive: 3.8 |
| C[C@]12CC[C@@H]3c4ccc(O)cc4C[C@@H](CCCCCCCCCS(=O)CCCC(F)(F)C(F)(F)F)[C@H]3[C@@H]1CC[C@H]2O (some centres undefined) | inactive: 2.11 |
| C#CCN(C)[C@H](C)Cc1ccccc1.Cl [Selegiline hydrochloride] | inactive: 0.826 |
| CC1(C)C(C(=O)O)N2C(=O)C[C@H]2S1(=O)=O (some centres undefined) | inactive: 0.819 |
| Cl.Cl.Clc1ccc(Nc2nnc(Cc3ccncc3)c3ccccc23)cc1 [Vatalanib dihydrochloride (PTK787)] | inactive: 1.09 |
| Cl.Cl.Clc1ccc(Nc2nnc(Cc3ccncc3)c3ccccc23)cc1 [Vatalanib (PTK787) 2HCl] | inactive: 0.344 |
| CC(=O)c1c(C)c2cnc(Nc3ccc(N4CCNCC4)cn3)nc2n(C2CCCC2)c1=O.Cl [Palbociclib hydrochloride] | inactive: 0.278 |
| CC(N)C12CC3CC(CC(C3)C1)C2.Cl (centres undefined) [Rimantadine hydrochloride] | inactive: 1.91 |
| NC1(Cc2ccc(Cl)cc2)CCN(c2ncnc3[nH]ccc23)CC1 | inactive: -0.983 |
| Brc1c(Br)c(Br)c2[nH]cnc2c1Br | inactive: 1.39 |
| CCc1cccc2c3c([nH]c12)C(CC)(CC(=O)O)OCC3 (centres undefined) | inactive: 3.32 |
| CCc1cccc2c3c([nH]c12)C(CC)(CC(=O)O)OCC3 (centres undefined) [Etodolac] | inactive: 2.99 |
| OCc1ccccc1O[C@@H]1O[C@H](CO)[C@@H](O)[C@H](O)[C@H]1O | inactive: -0.123 |
| CC(C)=CCCC1(C)C=Cc2c(O)c3c(c(CC=C(C)C)c2O1)OC12C(CC4CC1C(C)(C)OC2(C/C=C(/C)C(=O)O)C4O)C3=O (centres undefined) | inactive: 2.26 |
| CNC(=O)c1cnn(-c2nc(N)c3ncn([C@@H]4O[C@H](CO)[C@@H](O)[C@H]4O)c3n2)c1 [Regadenoson] | inactive: 1.42 |
| COc1ccc(-c2coc3cc(O)cc(O)c3c2=O)cc1 | inactive: 1.5 |
| C[C@@H]1CCO[C@H]2Cn3cc(C(=O)NCc4ccc(F)cc4F)c(=O)c(O)c3C(=O)N12 [Dolutegravir] | inactive: 1.89 |
| O=C1NC(c2cccc([N+](=O)[O-])c2)=CCN1c1ccccc1O [Icilin] | inactive: 2.98 |
| N#Cc1cc2nc([O][Na])c([O][Na])nc2cc1[N+](=O)[O-] [CNQX disodium] | inactive: 3.48 |
| c1ccc(CN(CC2=NCCN2)c2ccccc2)cc1 | inactive: 1.03 |

| SMILES | cell-cell fusion (z-score) |
| --- | --- |
| CN(C)[C@@H]1C(O)=C(C(N)=O)C(=O)[C@@]2(O)C(O)=C3C(=O)c4c(O)ccc(Cl)c4[C@@H](O)[C@H]3C[C@@H]12.Cl | inactive: 0.552 |
| Cc1ccc(-c2cc(C(F)(F)F)nn2-c2ccc(S(N)(=O)=O)cc2)cc1 [Celecoxib] | inactive: 1.48 |
| Cc1ccc(-c2cc(C(F)(F)F)nn2-c2ccc(S(N)(=O)=O)cc2)cc1 | inactive: 2.36 |
| O=C1CCc2ccc(OCCCCN3CCN(c4cccc(Cl)c4Cl)CC3)cc2N1 [Aripiprazole] | inactive: 3.82 |
| Cc1cc(C(=O)NNCc2ccccc2)no1 [Isocarboxazid] | inactive: 2.2 |
| C[C@]12CC[C@H]3c4ccc(O)cc4CC[C@H]3[C@@H]1CC[C@H]2O [Estradiol] | inactive: 1.96 |
| O=C(Nc1ccc(OC(F)(F)F)cc1)c1sccc1NCc1ccnc2ccccc12 | inactive: 1.75 |
| O=c1[nH]c2ccccc2c2ccccc12 [6(5H)-Phenanthridinone] | inactive: -0.105 |
| CC(C)[C@H](N)C(=O)OCCOCn1cnc2c(=O)[nH]c(N)nc21.Cl | inactive: 2.35 |
| CCOc1ncc(S(=O)(=O)N2CCN(CC)CC2)cc1-c1nc(=O)c2nn(CCOC)c(CC)c2[nH]1.O=S(=O)(O)c1ccccc1 [Gisadenafil besylate salt] | inactive: 0.751 |
| CCOc1ncc(S(=O)(=O)N2CCN(CC)CC2)cc1-c1nc(=O)c2nn(CCOC)c(CC)c2[nH]1.O=S(=O)(O)c1ccccc1 [Gisadenafil] | inactive: 2.47 |
| O=c1c(O)c(-c2cc(O)c(O)c(O)c2)oc2cc(O)cc(O)c12 [Myricetin] | inactive: 2.68 |
| O=c1c(O)c(-c2cc(O)c(O)c(O)c2)oc2cc(O)cc(O)c12 | inactive: 2.05 |
| Cc1cccc(C)c1OCC(=O)N[C@@H](Cc1ccccc1)[C@@H](O)C[C@H](Cc1ccccc1)NC(=O)[C@H](C(C)C)N1CCCNC1=O [Lopinavir] | active: -3.21 |
| C[C@@H]1CC[C@@]2(NC1)O[C@H]1C[C@H]3C4CC=C5C[C@@H](O)CC[C@]5(C)C4CC[C@]3(C)C1[C@@H]2C (some centres undefined) | inactive: 2.24 |
| CC(=O)OCC(=O)[C@@]1(OC(C)=O)[C@@H](C)CC2C3C[C@H](F)C4=CC(=O)C=C[C@]4(C)[C@@]3(F)[C@@H](O)C[C@@]21C (some centres undefined) | inactive: 2.48 |
| Oc1ccnc(S)n1 | inactive: -1.46 |
| CC(=O)O[C@H]1CC[C@@]2(C)C(CC[C@]3(C)C2C(=O)C=C2[C@@H]4C[C@@](C)(C(=O)O)CC[C@]4(C)CC[C@]23C)C1(C)C (some centres undefined) | inactive: 3.57 |
| Cc1cc(=O)oc2cc(O)c(O)cc12 | inactive: 1.21 |
| C=CC(=O)Nc1cccc(Nc2nc(Nc3ccc(Oc4ccnc(C(=O)NC)c4)cc3)ncc2F)c1 | inactive: -2.56 |
| Nc1c(CC(=O)[O-])cccc1C(=O)c1ccc(Br)cc1.Nc1c(CC(=O)[O-])cccc1C(=O)c1ccc(Br)cc1.O.O.O.[Na+].[Na+] [Bromfenac sodium] | inactive: 2.93 |
| O=C(c1ccc(/C=C/c2n[nH]c3ccccc23)cc1)N1CCNCC1 | inactive: -0.616 |
| O=C1CCc2cc(OCCCCc3nnnn3C3CCCCC3)ccc2N1 [Cilostazol] | inactive: 2.67 |

Already shown: entries from further up.

| SMILES | cell-cell fusion (z-score) |
| --- | --- |
| CCOc1ncc(S(=O)(=O)N2CCN(CC)CC2)cc1-c1nc(=O)c2nn(CCOC)c(CC)c2[nH]1.O=S(=O)(O)c1ccccc1 [Gisadenafil] | inactive: 2.47 |
| O=c1c(O)c(-c2cc(O)c(O)c(O)c2)oc2cc(O)cc(O)c12 [Myricetin] | inactive: 2.68 |
| O=c1c(O)c(-c2cc(O)c(O)c(O)c2)oc2cc(O)cc(O)c12 | inactive: 2.05 |
| Cc1cccc(C)c1OCC(=O)N[C@@H](Cc1ccccc1)[C@@H](O)C[C@H](Cc1ccccc1)NC(=O)[C@H](C(C)C)N1CCCNC1=O [Lopinavir] | active: -3.21 |
| C[C@@H]1CC[C@@]2(NC1)O[C@H]1C[C@H]3C4CC=C5C[C@@H](O)CC[C@]5(C)C4CC[C@]3(C)C1[C@@H]2C (some centres undefined) | inactive: 2.24 |
| CC(=O)OCC(=O)[C@@]1(OC(C)=O)[C@@H](C)CC2C3C[C@H](F)C4=CC(=O)C=C[C@]4(C)[C@@]3(F)[C@@H](O)C[C@@]21C (some centres undefined) | inactive: 2.48 |

— the supplement of paper PMC8104966
